Consider five molecules from patent US20100120688A1.

Results are given in words; binding and its absence hold for the method and conditions named. Some binding calls cover weakened binding; strength is not graded here.

Assay [1] addresses erbB2-SbdIV (recombinantly expressed subdomain IV of erbB2, GST fusion protein) (UniProt P04626). Description: SPR (Biacore), peptide over immobilized erbB2-SbdIV. For orientation: In SPR one partner is held on a chip, and binding of the other changes the refractive index at the surface.
For assay [2] the target is unchanged. Description: SPR (Biacore), erbB2-SbdIV immobilized, peptide injected; target per legend paragraph 39 (the sheet prints no target).

Consider YCFPDEEGACY (cyclized by a disulfide bond between the two cysteines (air oxidation)) [B2-S22-AFA (derived from erbB2)], for which the binding entry in assay [1] is on record as “binds”.

As to YCPIYKYPDVQCY (cyclized by a disulfide bond between the two cysteines (air oxidation)) [B3-S22-APQ (derived from erbB3)], the binding result in assay [1] was “binds”.

For YCFIFKYADPDCY (cyclized by a disulfide bond between the two cysteines (air oxidation)) [B4-S22-AFD (derived from erbB4)], in assay [1], the binding entry was “binds”.

Regarding YCLVWKYADAGCY (cyclized by a disulfide bond between the two cysteines (air oxidation)) [B1-S22-ALG (derived from erbB1)], the binding result in assay [1] was “binds”.

For YCPIWKFPDEECY (cyclized by a disulfide bond between the two cysteines (air oxidation)) [B2-S22-APE (derived from erbB2)], in assay [2], the binding entry is “binds”.
